{
  "sequences": {"note": "The chains behind the UniProt entries cited, without tags or fusion partners. Where a name states a change or a piece, a line headed by the entry shows the natural chain unless it says otherwise.", "UniProt Q14160": "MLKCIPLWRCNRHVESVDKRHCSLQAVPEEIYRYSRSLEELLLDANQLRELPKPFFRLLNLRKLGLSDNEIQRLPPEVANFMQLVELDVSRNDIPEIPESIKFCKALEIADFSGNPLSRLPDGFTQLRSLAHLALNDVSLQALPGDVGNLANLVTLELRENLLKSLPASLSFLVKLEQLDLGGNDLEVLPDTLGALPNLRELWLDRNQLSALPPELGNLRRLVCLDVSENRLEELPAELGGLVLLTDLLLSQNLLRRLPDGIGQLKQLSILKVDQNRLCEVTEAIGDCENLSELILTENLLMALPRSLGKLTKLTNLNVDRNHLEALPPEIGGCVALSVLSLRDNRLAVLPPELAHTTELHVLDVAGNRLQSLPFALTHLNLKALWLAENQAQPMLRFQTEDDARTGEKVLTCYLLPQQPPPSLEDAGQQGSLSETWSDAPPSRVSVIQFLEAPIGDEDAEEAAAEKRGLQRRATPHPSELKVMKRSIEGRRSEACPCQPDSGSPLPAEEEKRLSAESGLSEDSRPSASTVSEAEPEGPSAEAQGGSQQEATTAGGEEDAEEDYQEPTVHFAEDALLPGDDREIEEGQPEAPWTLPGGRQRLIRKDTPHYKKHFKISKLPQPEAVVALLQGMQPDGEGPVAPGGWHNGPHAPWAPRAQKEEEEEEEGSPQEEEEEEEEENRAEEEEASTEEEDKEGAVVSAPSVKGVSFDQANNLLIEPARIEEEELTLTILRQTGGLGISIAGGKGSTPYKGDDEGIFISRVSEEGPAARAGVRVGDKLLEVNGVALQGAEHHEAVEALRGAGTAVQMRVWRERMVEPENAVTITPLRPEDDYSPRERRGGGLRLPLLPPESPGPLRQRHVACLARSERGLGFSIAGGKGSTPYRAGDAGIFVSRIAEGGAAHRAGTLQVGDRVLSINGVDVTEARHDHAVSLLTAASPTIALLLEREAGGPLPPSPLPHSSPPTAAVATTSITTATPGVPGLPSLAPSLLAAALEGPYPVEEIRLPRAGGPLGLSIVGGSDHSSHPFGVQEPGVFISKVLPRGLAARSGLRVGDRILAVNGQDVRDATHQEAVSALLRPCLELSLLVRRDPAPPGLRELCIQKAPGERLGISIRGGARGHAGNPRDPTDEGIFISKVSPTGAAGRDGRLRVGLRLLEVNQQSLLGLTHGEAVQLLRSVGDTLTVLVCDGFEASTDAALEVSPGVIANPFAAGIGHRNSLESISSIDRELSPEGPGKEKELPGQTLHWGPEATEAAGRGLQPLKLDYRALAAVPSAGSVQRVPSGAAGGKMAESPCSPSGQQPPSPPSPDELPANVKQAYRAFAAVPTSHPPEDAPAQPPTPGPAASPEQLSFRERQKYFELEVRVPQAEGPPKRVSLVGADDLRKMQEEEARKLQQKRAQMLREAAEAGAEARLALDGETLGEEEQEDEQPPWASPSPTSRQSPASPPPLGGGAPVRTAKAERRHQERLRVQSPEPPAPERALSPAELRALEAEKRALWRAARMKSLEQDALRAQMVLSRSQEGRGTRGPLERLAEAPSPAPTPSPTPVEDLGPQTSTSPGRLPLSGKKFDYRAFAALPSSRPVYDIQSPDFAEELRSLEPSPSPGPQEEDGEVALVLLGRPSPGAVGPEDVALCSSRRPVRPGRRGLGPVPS"},
  "source": "paper PMC3724847",
  "note": "Results are given in words; binding and its absence hold for the method and conditions named. Binding seen in cells or lysates may run through a third protein. Some entries that bind do so weakly or less than the wild type. Tags and fused reporters may be left off the sequences shown.",
  "data": [
    {"target": "T1, HA-VANGL2 (hemagglutinin-tagged VANGL2) (UniProt Q9ULK5)", "T1 sequence": "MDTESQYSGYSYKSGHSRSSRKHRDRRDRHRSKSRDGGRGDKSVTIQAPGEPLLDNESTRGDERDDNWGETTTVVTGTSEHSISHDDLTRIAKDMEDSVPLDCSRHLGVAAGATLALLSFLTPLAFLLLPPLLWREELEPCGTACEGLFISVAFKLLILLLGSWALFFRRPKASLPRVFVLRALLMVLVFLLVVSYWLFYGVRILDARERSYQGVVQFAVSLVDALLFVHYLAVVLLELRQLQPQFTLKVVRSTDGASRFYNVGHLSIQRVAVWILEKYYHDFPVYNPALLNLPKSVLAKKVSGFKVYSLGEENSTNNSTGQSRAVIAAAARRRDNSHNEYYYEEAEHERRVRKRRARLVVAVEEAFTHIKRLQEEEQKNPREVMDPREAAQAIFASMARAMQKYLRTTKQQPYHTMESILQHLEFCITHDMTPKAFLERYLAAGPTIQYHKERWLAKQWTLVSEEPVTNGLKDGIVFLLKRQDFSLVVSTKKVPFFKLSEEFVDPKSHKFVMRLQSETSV", "assay": "co-IP; HEK293T cells co-transfected with GFP-SCRIB (or mutant) and HA-VANGL2, lysed 24 h later in 1% NP-40 buffer; HA immunoprecipitation (Pierce HA Tag IP/Co-IP Kit), blot with anti-GFP and anti-HA", "values": [
      {"substance": "GFP-SCRIB p.P1332L (from UniProt Q14160 1-1655)", "binding": "binds"},
      {"substance": "GFP-SCRIB wild type (human SCRIB full-length cDNA in pEGFP-C1) (from UniProt Q14160 1-1655)", "binding": "binds"},
      {"substance": "GFP-SCRIB p.A366T (from UniProt Q14160 1-1655)", "binding": "binds"},
      {"substance": "GFP-SCRIB p.A1315T (from UniProt Q14160 1-1655)", "binding": "binds"},
      {"substance": "GFP-SCRIB p.T552M (from UniProt Q14160 1-1655)", "binding": "binds"},
      {"substance": "GFP-SCRIB p.L1520R (from UniProt Q14160 1-1655)", "binding": "binds"},
      {"substance": "GFP-SCRIB p.P1043L (from UniProt Q14160 1-1655)", "binding": "binds"}
    ]}
  ]
}
